15 targets from the supplement of paper PMC6411743 can be followed below.

The chains behind the UniProt entries cited, without tags or fusion partners. Where a name states a change or a piece, a line headed by the entry shows the natural chain unless it says otherwise.
UniProt Q15645: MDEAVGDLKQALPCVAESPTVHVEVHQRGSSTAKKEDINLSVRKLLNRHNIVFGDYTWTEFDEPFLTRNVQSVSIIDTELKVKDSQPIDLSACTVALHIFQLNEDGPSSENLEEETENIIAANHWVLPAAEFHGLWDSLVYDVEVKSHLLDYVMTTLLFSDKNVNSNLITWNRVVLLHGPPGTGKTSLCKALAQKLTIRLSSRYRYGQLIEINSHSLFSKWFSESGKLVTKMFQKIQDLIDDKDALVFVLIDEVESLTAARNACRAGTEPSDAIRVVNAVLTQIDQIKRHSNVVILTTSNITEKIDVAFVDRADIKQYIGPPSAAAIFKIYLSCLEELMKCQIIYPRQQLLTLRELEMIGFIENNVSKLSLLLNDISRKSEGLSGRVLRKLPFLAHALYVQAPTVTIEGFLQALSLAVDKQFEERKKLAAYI
UniProt Q14CS0: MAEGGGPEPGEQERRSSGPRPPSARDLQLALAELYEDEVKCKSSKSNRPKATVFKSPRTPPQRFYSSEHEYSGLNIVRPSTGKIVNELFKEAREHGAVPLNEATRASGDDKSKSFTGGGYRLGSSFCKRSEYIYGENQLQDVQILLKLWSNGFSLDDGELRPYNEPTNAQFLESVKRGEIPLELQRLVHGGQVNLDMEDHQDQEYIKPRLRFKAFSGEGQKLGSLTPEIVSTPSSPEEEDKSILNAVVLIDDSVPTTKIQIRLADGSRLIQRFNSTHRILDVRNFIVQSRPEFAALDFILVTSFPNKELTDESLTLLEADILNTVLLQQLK
UniProt Q15007: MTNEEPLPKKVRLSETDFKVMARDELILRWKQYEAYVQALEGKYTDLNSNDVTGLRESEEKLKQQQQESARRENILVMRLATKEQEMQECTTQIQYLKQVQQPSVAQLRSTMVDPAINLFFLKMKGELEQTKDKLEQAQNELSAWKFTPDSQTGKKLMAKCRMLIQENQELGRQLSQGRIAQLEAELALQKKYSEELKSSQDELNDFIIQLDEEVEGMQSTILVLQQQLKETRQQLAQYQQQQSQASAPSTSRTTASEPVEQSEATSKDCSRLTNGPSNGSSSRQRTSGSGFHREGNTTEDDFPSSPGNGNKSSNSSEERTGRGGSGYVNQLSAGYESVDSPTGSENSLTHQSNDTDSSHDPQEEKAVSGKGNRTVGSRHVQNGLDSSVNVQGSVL
UniProt Q14686, whole entry: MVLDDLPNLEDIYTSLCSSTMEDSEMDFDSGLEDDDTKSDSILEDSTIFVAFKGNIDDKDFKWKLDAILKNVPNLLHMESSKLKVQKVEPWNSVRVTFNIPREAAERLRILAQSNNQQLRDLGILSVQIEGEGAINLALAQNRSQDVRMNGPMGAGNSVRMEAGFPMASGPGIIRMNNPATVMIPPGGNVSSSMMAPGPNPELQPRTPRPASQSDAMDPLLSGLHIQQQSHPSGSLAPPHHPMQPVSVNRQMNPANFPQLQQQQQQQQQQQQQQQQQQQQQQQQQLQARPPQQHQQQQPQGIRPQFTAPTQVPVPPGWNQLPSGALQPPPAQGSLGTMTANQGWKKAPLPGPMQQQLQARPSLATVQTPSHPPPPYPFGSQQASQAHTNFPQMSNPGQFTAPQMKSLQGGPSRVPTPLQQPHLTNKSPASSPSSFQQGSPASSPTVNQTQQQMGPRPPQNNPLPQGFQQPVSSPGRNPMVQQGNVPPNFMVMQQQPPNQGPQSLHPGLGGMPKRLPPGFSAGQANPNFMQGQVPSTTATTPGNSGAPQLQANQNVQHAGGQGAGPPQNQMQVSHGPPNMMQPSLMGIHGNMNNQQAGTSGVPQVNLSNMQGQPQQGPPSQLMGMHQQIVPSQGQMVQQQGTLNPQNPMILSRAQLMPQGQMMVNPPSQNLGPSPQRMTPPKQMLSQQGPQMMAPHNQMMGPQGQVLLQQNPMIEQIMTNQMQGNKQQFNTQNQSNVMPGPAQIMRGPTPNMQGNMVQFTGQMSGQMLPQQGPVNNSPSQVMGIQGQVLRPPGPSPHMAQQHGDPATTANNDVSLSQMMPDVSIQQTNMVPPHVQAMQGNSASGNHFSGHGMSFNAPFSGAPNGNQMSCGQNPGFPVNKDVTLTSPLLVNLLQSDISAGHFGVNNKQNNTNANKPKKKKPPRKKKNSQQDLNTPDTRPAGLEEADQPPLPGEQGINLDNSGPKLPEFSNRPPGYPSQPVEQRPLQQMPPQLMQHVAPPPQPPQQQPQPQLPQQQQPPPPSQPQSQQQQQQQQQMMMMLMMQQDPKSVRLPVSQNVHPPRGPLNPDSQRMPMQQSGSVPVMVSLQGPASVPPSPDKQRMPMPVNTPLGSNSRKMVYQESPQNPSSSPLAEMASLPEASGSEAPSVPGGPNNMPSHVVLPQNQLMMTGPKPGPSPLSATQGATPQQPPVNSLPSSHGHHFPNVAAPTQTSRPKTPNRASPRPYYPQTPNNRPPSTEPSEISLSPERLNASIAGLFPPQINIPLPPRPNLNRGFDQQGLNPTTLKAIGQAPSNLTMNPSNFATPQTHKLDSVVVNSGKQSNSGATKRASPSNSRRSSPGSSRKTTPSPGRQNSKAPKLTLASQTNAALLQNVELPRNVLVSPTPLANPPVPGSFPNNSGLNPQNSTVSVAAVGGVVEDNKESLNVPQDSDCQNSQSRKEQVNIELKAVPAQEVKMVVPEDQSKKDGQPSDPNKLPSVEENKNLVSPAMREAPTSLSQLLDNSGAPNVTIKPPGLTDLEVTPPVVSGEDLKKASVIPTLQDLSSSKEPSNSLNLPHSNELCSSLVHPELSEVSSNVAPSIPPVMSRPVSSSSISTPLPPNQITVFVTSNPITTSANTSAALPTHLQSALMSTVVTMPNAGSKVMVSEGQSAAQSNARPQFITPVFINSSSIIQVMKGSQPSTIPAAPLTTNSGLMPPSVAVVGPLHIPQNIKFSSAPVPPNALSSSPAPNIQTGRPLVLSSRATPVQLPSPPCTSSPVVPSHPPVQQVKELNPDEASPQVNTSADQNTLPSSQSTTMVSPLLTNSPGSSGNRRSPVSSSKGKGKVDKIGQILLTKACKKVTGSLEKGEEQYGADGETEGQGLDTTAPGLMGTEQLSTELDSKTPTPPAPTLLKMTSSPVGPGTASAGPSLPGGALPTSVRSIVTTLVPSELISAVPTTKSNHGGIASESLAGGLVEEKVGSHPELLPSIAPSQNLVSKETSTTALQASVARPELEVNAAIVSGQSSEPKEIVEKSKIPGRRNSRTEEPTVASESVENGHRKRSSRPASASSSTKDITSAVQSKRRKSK
UniProt Q15785: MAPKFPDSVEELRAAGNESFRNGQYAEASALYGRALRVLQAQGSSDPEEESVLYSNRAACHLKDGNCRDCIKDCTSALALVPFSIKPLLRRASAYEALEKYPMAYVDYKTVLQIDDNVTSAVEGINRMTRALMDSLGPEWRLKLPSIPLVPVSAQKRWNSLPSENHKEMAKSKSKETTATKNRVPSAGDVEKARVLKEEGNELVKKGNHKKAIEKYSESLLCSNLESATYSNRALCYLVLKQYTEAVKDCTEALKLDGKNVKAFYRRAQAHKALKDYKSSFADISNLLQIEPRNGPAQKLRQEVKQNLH
UniProt Q15814: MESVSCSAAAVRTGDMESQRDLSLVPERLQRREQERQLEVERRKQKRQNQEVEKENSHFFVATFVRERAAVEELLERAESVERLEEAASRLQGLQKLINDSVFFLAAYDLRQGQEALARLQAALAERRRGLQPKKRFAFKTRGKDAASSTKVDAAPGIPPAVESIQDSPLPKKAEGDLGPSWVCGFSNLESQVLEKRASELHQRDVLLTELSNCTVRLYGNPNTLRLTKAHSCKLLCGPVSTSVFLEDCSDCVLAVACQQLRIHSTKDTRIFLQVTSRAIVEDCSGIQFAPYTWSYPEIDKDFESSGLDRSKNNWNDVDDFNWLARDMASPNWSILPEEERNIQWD
UniProt Q15031: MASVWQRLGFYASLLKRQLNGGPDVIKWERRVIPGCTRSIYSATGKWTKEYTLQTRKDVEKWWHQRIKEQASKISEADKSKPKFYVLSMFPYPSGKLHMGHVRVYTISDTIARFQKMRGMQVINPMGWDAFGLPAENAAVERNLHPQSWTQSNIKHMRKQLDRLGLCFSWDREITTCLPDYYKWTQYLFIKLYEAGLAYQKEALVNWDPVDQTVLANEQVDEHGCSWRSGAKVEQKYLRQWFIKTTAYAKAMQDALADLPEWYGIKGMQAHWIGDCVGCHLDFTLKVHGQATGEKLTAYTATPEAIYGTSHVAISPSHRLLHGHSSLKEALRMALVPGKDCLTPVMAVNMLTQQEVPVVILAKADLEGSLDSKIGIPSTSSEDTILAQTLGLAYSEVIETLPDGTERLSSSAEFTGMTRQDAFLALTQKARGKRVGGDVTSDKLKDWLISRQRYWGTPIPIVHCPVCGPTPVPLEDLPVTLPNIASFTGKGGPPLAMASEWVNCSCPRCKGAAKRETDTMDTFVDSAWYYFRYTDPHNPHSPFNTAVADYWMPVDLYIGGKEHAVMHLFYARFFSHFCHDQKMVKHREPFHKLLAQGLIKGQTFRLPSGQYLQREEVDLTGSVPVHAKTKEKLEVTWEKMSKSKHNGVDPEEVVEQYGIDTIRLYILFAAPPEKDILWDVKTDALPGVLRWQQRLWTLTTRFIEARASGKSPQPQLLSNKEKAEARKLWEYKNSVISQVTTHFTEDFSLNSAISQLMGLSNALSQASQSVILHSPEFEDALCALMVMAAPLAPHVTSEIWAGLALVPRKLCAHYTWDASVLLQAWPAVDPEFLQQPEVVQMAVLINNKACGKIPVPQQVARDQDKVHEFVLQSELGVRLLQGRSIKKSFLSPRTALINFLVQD
UniProt Q16706: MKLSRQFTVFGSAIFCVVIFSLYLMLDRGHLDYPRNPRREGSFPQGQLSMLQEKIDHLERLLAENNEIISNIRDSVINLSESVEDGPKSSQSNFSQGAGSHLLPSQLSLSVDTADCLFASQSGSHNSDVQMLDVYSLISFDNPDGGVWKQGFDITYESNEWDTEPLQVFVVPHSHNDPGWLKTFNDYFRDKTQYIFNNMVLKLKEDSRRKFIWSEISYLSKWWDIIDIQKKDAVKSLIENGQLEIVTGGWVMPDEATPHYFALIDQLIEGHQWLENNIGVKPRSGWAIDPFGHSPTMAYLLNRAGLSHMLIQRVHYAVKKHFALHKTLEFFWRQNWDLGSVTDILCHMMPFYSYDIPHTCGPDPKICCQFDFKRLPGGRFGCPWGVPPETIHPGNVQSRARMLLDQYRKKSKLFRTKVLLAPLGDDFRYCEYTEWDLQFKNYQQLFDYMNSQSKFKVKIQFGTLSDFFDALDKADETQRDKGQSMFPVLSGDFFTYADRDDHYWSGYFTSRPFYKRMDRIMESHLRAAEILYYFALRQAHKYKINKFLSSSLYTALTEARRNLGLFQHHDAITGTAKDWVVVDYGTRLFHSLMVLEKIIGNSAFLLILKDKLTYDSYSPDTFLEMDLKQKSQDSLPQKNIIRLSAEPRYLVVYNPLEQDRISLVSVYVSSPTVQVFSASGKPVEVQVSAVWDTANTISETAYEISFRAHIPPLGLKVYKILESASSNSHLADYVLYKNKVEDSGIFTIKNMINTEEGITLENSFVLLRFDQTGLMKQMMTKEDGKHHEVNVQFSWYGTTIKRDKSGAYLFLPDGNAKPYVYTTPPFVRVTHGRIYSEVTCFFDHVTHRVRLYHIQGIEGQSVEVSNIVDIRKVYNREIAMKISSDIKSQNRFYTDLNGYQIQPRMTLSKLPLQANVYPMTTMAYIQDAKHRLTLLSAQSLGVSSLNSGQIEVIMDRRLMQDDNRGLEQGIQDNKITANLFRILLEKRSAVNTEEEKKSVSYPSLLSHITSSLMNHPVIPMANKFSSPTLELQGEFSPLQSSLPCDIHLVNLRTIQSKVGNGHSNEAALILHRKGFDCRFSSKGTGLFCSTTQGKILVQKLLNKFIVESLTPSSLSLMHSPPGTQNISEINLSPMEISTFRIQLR

Compound in the assay: Nc1ncnc2c1ncn2[C@@H]1O[C@H](COP(=O)(O)OP(=O)(O)OP(=O)(O)O)[C@@H](O)[C@H]1O [adenosine triphosphate]
In words: NP40-soluble protein abundance relative to vehicle (solubility fold change) (ratio); higher = more soluble protein in presence of ATP. Summed up:
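Each value is a fold change relative to the detergent-processed vehicle, calculated per replicate from vsn-normalised intensities. Jurkat crude lysate received eight concentrations (0.1 to 10 mM) for 10 min at room temperature and 3 min at 37 °C, then was solubilised in 0.8% NP40 with benzonase (60 min, 4 °C). The ultracentrifuged supernatant was TMT-labelled and run by LC-MS/MS in three independent experiments.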

± gives the standard deviation of the averaged measurements. The list shows a part of the results, in another mix than the full data.

TRIP13 (UniProt Q15645): the NP40-soluble protein abundance (concentration: 1mM) was 1.02 ± 0.074; the NP40-soluble protein abundance (concentration: 2mM) was 1 ± 0.032; the NP40-soluble protein abundance (concentration: 4mM) stood at 0.989 ± 0.061; the NP40-soluble protein abundance (concentration: 6mM) is 0.933 ± 0.079; the NP40-soluble protein abundance (concentration: 8mM) was 1.01 ± 0.031; the NP40-soluble protein abundance (concentration: 10mM) was determined as 0.994 ± 0.02.
Take UBXN2B (UniProt Q14CS0): the NP40-soluble protein abundance runs as follows: (concentration: 1mM) 0.914 ± 0.057; (concentration: 2mM) 0.963 ± 0.028; (concentration: 4mM) 1 ± 0.05; (concentration: 6mM) 1.01 ± 0.02; (concentration: 8mM) 0.827 ± 0.11; (concentration: 10mM) 0.9282 ± 0.0053.
WTAP (UniProt Q15007): the NP40-soluble protein abundance stood at 1.03 ± 0.085 (concentration: 1mM); 1.03 ± 0.054 (concentration: 2mM); 1.06 ± 0.056 (concentration: 4mM); 1.1 ± 0.12 (concentration: 6mM); 1.07 ± 0.042 (concentration: 8mM); 1.01 ± 0.085 (concentration: 10mM).
For ZNF638 (UniProt Q14966), the NP40-soluble protein abundance is, setting by setting: (concentration: 1mM) 1.01 ± 0.02; (concentration: 2mM) 1.03 ± 0.021; (concentration: 4mM) 1.04 ± 0.017; (concentration: 6mM) 1.1 ± 0.015; (concentration: 8mM) 1.059 ± 0.0043; (concentration: 10mM) 1.093 ± 0.0014.
With UniProt Q15555 and related entries, the NP40-soluble protein abundance (concentration: 1mM) was 0.895 ± 0.049; the NP40-soluble protein abundance (concentration: 2mM) worked out at 0.8887 ± 0.0036; the NP40-soluble protein abundance (concentration: 4mM) is 0.872 ± 0.017; the NP40-soluble protein abundance (concentration: 6mM) is 0.952 ± 0.038; the NP40-soluble protein abundance (concentration: 8mM) was 0.866 ± 0.032; the NP40-soluble protein abundance (concentration: 10mM) worked out at 0.909 ± 0.03.
Take UniProt Q15652 and related entries: the NP40-soluble protein abundance stood at 1.04 ± 0.022 (concentration: 1mM); 1.03 ± 0.05 (concentration: 2mM); 1.09 ± 0.032 (concentration: 4mM); 1.13 ± 0.022 (concentration: 6mM); 1.1 ± 0.071 (concentration: 8mM); 1.12 ± 0.067 (concentration: 10mM).
Take MED1 (UniProt Q15648): the NP40-soluble protein abundance reads like this: (concentration: 1mM) 0.985 ± 0.064; (concentration: 2mM) 0.983 ± 0.061; (concentration: 4mM) 0.987 ± 0.072; (concentration: 6mM) 1 ± 0.047; (concentration: 8mM) 0.965 ± 0.054; (concentration: 10mM) 1.02 ± 0.06.
Consider NCOA6 (UniProt Q14686), for which the NP40-soluble protein abundance by setting is: (concentration: 1mM) 0.971 ± 0.083; (concentration: 2mM) 0.958 ± 0.024; (concentration: 4mM) 0.942 ± 0.026; (concentration: 6mM) 0.991 ± 0.078; (concentration: 8mM) 0.9368 ± 0.0043; (concentration: 10mM) 0.964 ± 0.03.
Take TOMM34 (UniProt Q15785): the NP40-soluble protein abundance is, setting by setting: (concentration: 1mM) 0.908 ± 0.053; (concentration: 2mM) 0.97 ± 0.016; (concentration: 4mM) 0.927 ± 0.012; (concentration: 6mM) 0.984 ± 0.021; (concentration: 8mM) 0.912 ± 0.022; (concentration: 10mM) 0.902 ± 0.051.
Turning to TBCC (UniProt Q15814), the NP40-soluble protein abundance was 0.937 ± 0.011 (concentration: 1mM); 0.954 ± 0.011 (concentration: 2mM); 0.985 ± 0.022 (concentration: 4mM); 0.946 ± 0.035 (concentration: 6mM); 0.946 ± 0.026 (concentration: 8mM); 0.95 ± 0.022 (concentration: 10mM).
Take LARS2 (UniProt Q15031): the NP40-soluble protein abundance (concentration: 1mM) came to 1.02 ± 0.079; the NP40-soluble protein abundance (concentration: 2mM) was determined as 0.981 ± 0.087; the NP40-soluble protein abundance (concentration: 4mM) came to 0.984 ± 0.069; the NP40-soluble protein abundance (concentration: 6mM) was found to be 0.942 ± 0.13; the NP40-soluble protein abundance (concentration: 8mM) stood at 1.01 ± 0.047; the NP40-soluble protein abundance (concentration: 10mM) worked out at 0.952 ± 0.034.
Consider UniProt Q14671 and related entries, for which the NP40-soluble protein abundance was found to be 0.91 ± 0.054 (concentration: 1mM); 0.93 ± 0.038 (concentration: 2mM); 0.902 ± 0.074 (concentration: 4mM); 0.923 ± 0.043 (concentration: 6mM); 0.896 ± 0.057 (concentration: 8mM); 0.907 ± 0.062 (concentration: 10mM).
As for UniProt Q14789 and related entries, the NP40-soluble protein abundance by setting is: (concentration: 1mM) 0.971 ± 0.035; (concentration: 2mM) 0.97 ± 0.031; (concentration: 4mM) 0.967 ± 0.031; (concentration: 6mM) 1 ± 0.048; (concentration: 8mM) 0.941 ± 0.025; (concentration: 10mM) 0.949 ± 0.017.
Regarding MAN2A1 (UniProt Q16706), the NP40-soluble protein abundance is 1.04 ± 0.16 (concentration: 1mM); 0.926 ± 0.072 (concentration: 2mM); 0.939 ± 0.034 (concentration: 4mM); 0.888 ± 0.066 (concentration: 6mM); 0.918 ± 0.076 (concentration: 8mM); 0.92 ± 0.043 (concentration: 10mM).
Consider QRICH1 (UniProt Q2TAL8), for which the NP40-soluble protein abundance (concentration: 1mM) stood at 0.995 ± 0.034; the NP40-soluble protein abundance (concentration: 2mM) was determined as 0.971 ± 0.013; the NP40-soluble protein abundance (concentration: 4mM) was determined as 0.967 ± 0.018; the NP40-soluble protein abundance (concentration: 6mM) amounted to 0.966 ± 0.028; the NP40-soluble protein abundance (concentration: 8mM) is 0.9545 ± 0.0078; the NP40-soluble protein abundance (concentration: 10mM) worked out at 0.98 ± 0.027.
